Laboratory results as given in US20250179196A1.
Results are given in words; binding and its absence hold for the method and conditions named. Some binding calls cover weakened binding; strength is not graded here.

Protein sequences, listed by entry. Tags and fused reporters are not part of them. Residues count along the entry.
UniProt Q5VWK5, residues 24-629: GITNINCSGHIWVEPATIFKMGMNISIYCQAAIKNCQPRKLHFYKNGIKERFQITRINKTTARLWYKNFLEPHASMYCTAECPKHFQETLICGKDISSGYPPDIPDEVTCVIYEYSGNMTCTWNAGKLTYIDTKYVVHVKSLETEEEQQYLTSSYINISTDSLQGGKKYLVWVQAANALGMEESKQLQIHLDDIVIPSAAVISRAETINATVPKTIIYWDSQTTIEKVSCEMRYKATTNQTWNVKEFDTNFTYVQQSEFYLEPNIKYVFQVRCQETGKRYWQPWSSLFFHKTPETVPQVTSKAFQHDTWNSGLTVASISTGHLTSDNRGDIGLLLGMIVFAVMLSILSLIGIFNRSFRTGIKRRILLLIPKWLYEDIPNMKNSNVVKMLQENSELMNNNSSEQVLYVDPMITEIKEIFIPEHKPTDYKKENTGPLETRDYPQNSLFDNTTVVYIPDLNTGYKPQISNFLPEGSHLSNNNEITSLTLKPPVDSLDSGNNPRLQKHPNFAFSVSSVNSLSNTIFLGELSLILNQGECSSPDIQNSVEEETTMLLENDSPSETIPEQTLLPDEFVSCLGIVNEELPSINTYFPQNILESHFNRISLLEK

Biological target: human IL-23R on the cell surface (human) (UniProt Q5VWK5)
Assay: flow cytometry, HEK-IL-23R cells

binding: binds
B1: I23RB81 (antibody, mouse IgG2a, kappa, V domains shown)
VH: DVQLQESGPGLVAPSQSLSITCTVSGFSLTSYAINWVRQPPGKGLEWLGVIWTGGGTNYNSALKSRLSISKDNSKSQLFLKMNSLQTDDTARYYCARNRDYSNYRWYFDVWGAGTSVTVSS
VL: DIVMTQSHKFMSTSVGDRVSIICKASQDVSTAVAWYQQKPGQSPKLLIYSASYRYTGVPDRFTGSGSGTDFTFTISSVQAEDLAVYYCQQHYSTPLTFGAGTRLEIKR
